Source: PubChem BioAssay AID2685 (National Center for Advancing Translational Sciences (NCATS), 2010)
Some of the results follow. The main result of the screen is listed elsewhere. These columns were measured beside it and carry no call. Most of these compounds were active or inconclusive in the main read-out, so they are no random draw. The note in brackets gives the kind of curve behind each potency; many fits are weak.

Experiment: qHTS Assay for Lipid Storage Modulators in Drosophila S3 Cells;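 as to cell number change: cells counted by Cell Tracker Red CMTPX staining in the red channel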
Details: BODIPY lipid droplet fluorescence, 18-24 h; for cell number change: measured here: cell count max response, cells fed with added oleic acid
Method in brief: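 Laser-scanning cytometry quantifies lipid droplet accumulation (500–530 nm total intensity; droplet/cell object ratio) in oleic acid-fed (400 uM added) Drosophila S3 cells treated with a concentration series. 20 uM Triacsin C defined 100% inhibition.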

[1] = measured here: cell number channel AC50, cells fed with added oleic acid
[2] = measured here: lipid fluorescence (Fed channel) AC50, cells fed with added oleic acid

SMILES	cell number change [%]	AC50 [1]	AC50 [2]
Cc1cc(C)c(C#N)c(N2CCN(S(=O)(=O)Cc3ccccc3)CC2)n1	51	12.6 µM [rising, single point]	
COc1ccc(OCC(=O)Nc2ccc(N3CCOCC3)cc2)c([N+](=O)[O-])c1	17.6	0.326 µM [rising, full curve, poor fit]	
Cc1nn(Cc2ccccc2)c(C)c1NC(=O)CCC(=O)O	-71.4	32.6 µM [falling, single point]	5.8 µM [falling, partial curve]
O=C1COc2ccc(S(=O)(=O)N3CCCC3)cc2N1	4.78		6.51 µM [rising, single point]
CCOc1cc(N2CCOCC2)c(OCC)cc1NC(=O)CN1C(=O)N(C)C2(CCCCC2)C1=O	12.7		
CN(C)CCNc1nc(-c2ccccc2)c2c(c1C#N)CC(C)(C)OC2		0.146 µM [rising, full curve, poor fit]	6.51 µM [rising, single point]
COc1n[nH]c(C(=O)Nc2cc(Cl)ccc2Cl)c1[N+](=O)[O-]	-47.2	23.1 µM [falling, single point]	23.1 µM [falling, single point]
Cc1ccc(C2=[N+]([O-])C3(CCCCC/C3=N\NC(N)=O)N(O)C2(C)C)o1 (stereo not given)	-47.7	5.8 µM [falling, full curve]	5.8 µM [falling, full curve]
COC(=O)CCn1nnc(-c2ccc(C(C)C)cc2)n1			6.51 µM [falling, single point]
COc1ccc(NC(=O)C(=O)c2cn(CC(=O)N3CCCC3)c3ccccc23)cc1	-16.5		0.58 µM [falling, single point]
CCN(CC)S(=O)(=O)c1ccc(N2CCN(C)CC2)c(NC(=O)Nc2ccccc2F)c1	23.9		29.1 µM [rising, single point]
O=C(CSc1ccc(/C=N/NC(=O)c2cccc(F)c2)o1)Nc1ccccc1		1.84 µM [rising, partial curve, poor fit]	
CC(C)(C)OC(=O)N1CCC(c2c(C(=O)N3CCN(C(=O)c4ccco4)CC3)cnn2-c2ccc(F)cc2F)CC1	-13		29.1 µM [falling, single point]
Cc1cc(NC(=O)CCCC(=O)N(CC(=O)NC2CCCCC2)c2ccccc2)no1	-10		
CC1(C)O[C@@H]2[C@H](O1)[C@@H](CO)O[C@H]2n1c(N2CCCCC2)nc2c(N)ncnc21	-5.17		
O=S(=O)(c1cc(F)ccc1F)N1CCN(c2ncccn2)CC1	9.9	1.46 µM [rising, full curve, poor fit]	20.6 µM [rising, single point]
COc1ccc(Cl)cc1NS(=O)(=O)c1cccc(C(=O)N2CC(C)OC(C)C2)c1 (stereo not given)	-6.69		25.9 µM [falling, single point]
COc1cc(/C=C2/C(=N)N3OC(C)=CC3=NC2=O)ccc1OCCOc1ccc(C)cc1	8.91		6.51 µM [rising, full curve, poor fit]
COc1ccc(CC(=O)NNc2ncnc3c2cnn3-c2ccccc2)cc1	-29.8		2.91 µM [rising, partial curve, poor fit]
CCc1ccc(-c2csc(NC(=O)C3=NN(c4ccccc4)C(=O)CC3)n2)cc1	-1.61	0.651 µM [rising, partial curve, poor fit]	0.92 µM [rising, full curve]
CSc1ccc(C(=O)NC2CCSc3ccccc32)cc1 (stereo not given)	2.38		6.51 µM [rising, single point]
COc1ccccc1N(CC(=O)NCCSCc1ccco1)S(=O)(=O)c1ccccc1	-13.2		
Cc1cc(C)nc(SCc2nnc(SCC(=O)Nc3nc(-c4ccccc4)cs3)n2-c2ccccc2)n1	55.8	29.1 µM [rising, single point]	6.51 µM [rising, partial curve]
Cn1c(=O)c2ncn(CC(=O)Nc3ccc4c5c(cccc35)CC4)c2n(C)c1=O			0.116 µM [rising, full curve, poor fit]
COC(=O)c1ccc(Cn2nnc3c(=O)[nH]c(C4CCCN(S(=O)(=O)c5ccccc5Cl)C4)nc32)cc1 (stereo not given)	-8.26		0.58 µM [rising, single point]
Cc1ccc(/C=c2\sc3nc(-c4cccs4)nn3c2=O)o1	-21	0.13 µM [falling, full curve, poor fit]	0.651 µM [falling, full curve, poor fit]
Cc1cc(C)c2c(-n3cccc3)c(C(=O)NNS(=O)(=O)c3ccccc3)sc2n1	7.18	0.231 µM [rising, full curve, poor fit]	

SMILES	cell number change [%]	AC50 [1]	AC50 [2]
Cc1ccc2nc(SC(C)C(=O)NCc3ccco3)[nH]c2c1 (stereo not given)			29.1 µM [falling, single point]
CCCC1CCC(=NNC(=S)NCCc2ccccc2)CC1 (stereo not given)	31.2	16.4 µM [rising, single point]	
CCOc1ccc(NC(=O)Nc2ccc(N(C)C(C)=O)cc2)cc1	3.9	0.146 µM [falling, full curve, poor fit]	0.00461 µM [falling, full curve, poor fit]
O=C(NCCSc1ccccc1)c1ccc(CN2CCOCC2)cc1	-8.69		3.26 µM [falling, single point]
COC(=O)C1CCN(CCCOc2ccc(CN3CCN(c4ccc([N+](=O)[O-])cc4)CC3)cc2)CC1	-17.1		0.00517 µM [falling, full curve, poor fit]
COc1cc(NS(=O)(=O)c2cn(C)cn2)cc(OC)c1	-13.3		0.146 µM [rising, full curve, poor fit]
Cc1ccc(CNC(=O)CCS(=O)(=O)c2ccc3nc(C)sc3c2)cc1	6.63		
O=C(CCn1c(=O)oc2ccccc21)N1CCOCC1	-10.3		0.00411 µM [rising, full curve, poor fit]
CCN(CC(=O)NC1CCCCCC1)S(=O)(=O)c1ccccc1		2.91 µM [rising, single point]	2.31 µM [rising, partial curve]
Cc1cccc(NC(=S)NN2CCN(C)CC2)c1	-3.38		5.17 µM [falling, single point]
COc1ccc(-n2nc([N+](=O)[O-])c(=NCCc3ccc(OC)c(OC)c3)n2O)cc1			0.82 µM [falling, full curve, poor fit]
N/C(Cc1ccc([N+](=O)[O-])cc1)=N\OC(=O)COc1cccc2ccccc12	-2.97		32.6 µM [falling, partial curve, poor fit]
Cc1ccc(C(=O)O/N=C2\CCCc3ccccc32)cc1	-39.9	4.11 µM [falling, partial curve, poor fit]	29.1 µM [falling, single point]
CCCOC(=O)c1ccc(Oc2cn[nH]c2-c2ccc(OC)cc2O)cc1	-81.9	23.1 µM [falling, partial curve]	1.16 µM [falling, full curve]
COc1ccc2sc(N(CCCN(C)C)C(=O)c3ccc(S(=O)(=O)N4CCCc5ccccc54)cc3)nc2c1	-82.8	20.6 µM [falling, partial curve]	
COc1ccc(NC(=O)CSc2nnc(Cc3ccc(C)cc3)c(=O)n2N)cc1OC	-14.2		
COc1cc(NC(=O)CN2C(=O)c3ccccc3S2(=O)=O)cc(OC)c1	1.01		0.651 µM [rising, full curve, poor fit]
CC(=O)Nc1ccc(NC(=O)COC(=O)c2c(C)nn(-c3ccccc3)c2C)cc1	11.3	0.116 µM [rising, full curve, poor fit]	0.13 µM [rising, full curve, poor fit]
CCCOc1ccc(N2CC(C(=O)Nc3ccccn3)CC2=O)cc1 (stereo not given)	-4.02		
COC(=O)C1Cc2c([nH]c3ccccc23)C(C)N1 (stereo not given)	108	20.6 µM [rising, single point]	29.1 µM [rising, single point]
C#CCOCCOCCOCCNc1nc(N2CCN(C(=O)[C@H]([C@@H](C)CC)n3cc([C@@H](N)CC(C)C)nn3)CC2)nc(N2CCN(C(=O)[C@H](Cc3cc4ccccc4[nH]3)n3cc([C@@H](N)C(C)CC)nn3)CC2)n1 (stereo not given in full)	-23.8	3.66 µM [falling, full curve, poor fit]	6.51 µM [falling, single point]
O=C1c2cccc3cc(Br)cc(c23)C(=O)N1Nc1ccc(Br)cc1	1.93		2.91 µM [rising, partial curve, poor fit]
CCC1CCCCN1C(=O)COc1ccc(S(=O)(=O)N2CCOCC2)cc1Cl (stereo not given)	-21.8		7.31 µM [falling, partial curve, poor fit]
Cc1ccc(/C=C(\NC(=O)c2ccccc2)C(=O)N2CCCC2C(=O)O)cc1 (stereo not given)	-36.5	0.651 µM [falling, full curve, poor fit]	0.82 µM [falling, full curve]
CCCCOc1ccc(Br)cc1/C(C)=N/NC1=NCCN1	-66.4	13 µM [falling, partial curve]	7.31 µM [falling, partial curve]
CCn1nc(C(=O)NNC(=O)C2CSC3(C)CCC(=O)N23)c2ccccc2c1=O (stereo not given)	-49.5	29.1 µM [falling, single point]	29.1 µM [falling, single point]

A stretch from the list above, for reference:
SMILES	cell number change [%]	AC50 [1]	AC50 [2]
Cc1cccc(NC(=S)NN2CCN(C)CC2)c1	-3.38		5.17 µM [falling, single point]
COc1ccc(-n2nc([N+](=O)[O-])c(=NCCc3ccc(OC)c(OC)c3)n2O)cc1			0.82 µM [falling, full curve, poor fit]
N/C(Cc1ccc([N+](=O)[O-])cc1)=N\OC(=O)COc1cccc2ccccc12	-2.97		32.6 µM [falling, partial curve, poor fit]
Cc1ccc(C(=O)O/N=C2\CCCc3ccccc32)cc1	-39.9	4.11 µM [falling, partial curve, poor fit]	29.1 µM [falling, single point]
CCCOC(=O)c1ccc(Oc2cn[nH]c2-c2ccc(OC)cc2O)cc1	-81.9	23.1 µM [falling, partial curve]	1.16 µM [falling, full curve]
COc1ccc2sc(N(CCCN(C)C)C(=O)c3ccc(S(=O)(=O)N4CCCc5ccccc54)cc3)nc2c1	-82.8	20.6 µM [falling, partial curve]	
COc1ccc(NC(=O)CSc2nnc(Cc3ccc(C)cc3)c(=O)n2N)cc1OC	-14.2		
COc1cc(NC(=O)CN2C(=O)c3ccccc3S2(=O)=O)cc(OC)c1	1.01		0.651 µM [rising, full curve, poor fit]
CC(=O)Nc1ccc(NC(=O)COC(=O)c2c(C)nn(-c3ccccc3)c2C)cc1	11.3	0.116 µM [rising, full curve, poor fit]	0.13 µM [rising, full curve, poor fit]
CCCOc1ccc(N2CC(C(=O)Nc3ccccn3)CC2=O)cc1 (stereo not given)	-4.02		
COC(=O)C1Cc2c([nH]c3ccccc23)C(C)N1 (stereo not given)	108	20.6 µM [rising, single point]	29.1 µM [rising, single point]
C#CCOCCOCCOCCNc1nc(N2CCN(C(=O)[C@H]([C@@H](C)CC)n3cc([C@@H](N)CC(C)C)nn3)CC2)nc(N2CCN(C(=O)[C@H](Cc3cc4ccccc4[nH]3)n3cc([C@@H](N)C(C)CC)nn3)CC2)n1 (stereo not given in full)	-23.8	3.66 µM [falling, full curve, poor fit]	6.51 µM [falling, single point]
O=C1c2cccc3cc(Br)cc(c23)C(=O)N1Nc1ccc(Br)cc1	1.93		2.91 µM [rising, partial curve, poor fit]
